The target in this test is Proline-Rich Coiled-coil 2B (PRRC2B), endogenous (human (endogenous in HEK293T)) (UniProt Q5JSZ5). Briefly: affinity purification with mass spectrometry; IP of endogenous PRRC2B from HEK293T lysate with rabbit anti-PRRC2B antibody and protein A Dynabeads, without RNase T1; LC-MS, SAINT probability against pre-immune IgG IPs; lysis buffer 50 mM HEPES pH 7.5, 150 mM KCl, 2 mM EDTA, 0.1% NP-40.

Sequences of proteins named here, by UniProt entry; tags and fusion partners are left off.
UniProt Q5JSZ5: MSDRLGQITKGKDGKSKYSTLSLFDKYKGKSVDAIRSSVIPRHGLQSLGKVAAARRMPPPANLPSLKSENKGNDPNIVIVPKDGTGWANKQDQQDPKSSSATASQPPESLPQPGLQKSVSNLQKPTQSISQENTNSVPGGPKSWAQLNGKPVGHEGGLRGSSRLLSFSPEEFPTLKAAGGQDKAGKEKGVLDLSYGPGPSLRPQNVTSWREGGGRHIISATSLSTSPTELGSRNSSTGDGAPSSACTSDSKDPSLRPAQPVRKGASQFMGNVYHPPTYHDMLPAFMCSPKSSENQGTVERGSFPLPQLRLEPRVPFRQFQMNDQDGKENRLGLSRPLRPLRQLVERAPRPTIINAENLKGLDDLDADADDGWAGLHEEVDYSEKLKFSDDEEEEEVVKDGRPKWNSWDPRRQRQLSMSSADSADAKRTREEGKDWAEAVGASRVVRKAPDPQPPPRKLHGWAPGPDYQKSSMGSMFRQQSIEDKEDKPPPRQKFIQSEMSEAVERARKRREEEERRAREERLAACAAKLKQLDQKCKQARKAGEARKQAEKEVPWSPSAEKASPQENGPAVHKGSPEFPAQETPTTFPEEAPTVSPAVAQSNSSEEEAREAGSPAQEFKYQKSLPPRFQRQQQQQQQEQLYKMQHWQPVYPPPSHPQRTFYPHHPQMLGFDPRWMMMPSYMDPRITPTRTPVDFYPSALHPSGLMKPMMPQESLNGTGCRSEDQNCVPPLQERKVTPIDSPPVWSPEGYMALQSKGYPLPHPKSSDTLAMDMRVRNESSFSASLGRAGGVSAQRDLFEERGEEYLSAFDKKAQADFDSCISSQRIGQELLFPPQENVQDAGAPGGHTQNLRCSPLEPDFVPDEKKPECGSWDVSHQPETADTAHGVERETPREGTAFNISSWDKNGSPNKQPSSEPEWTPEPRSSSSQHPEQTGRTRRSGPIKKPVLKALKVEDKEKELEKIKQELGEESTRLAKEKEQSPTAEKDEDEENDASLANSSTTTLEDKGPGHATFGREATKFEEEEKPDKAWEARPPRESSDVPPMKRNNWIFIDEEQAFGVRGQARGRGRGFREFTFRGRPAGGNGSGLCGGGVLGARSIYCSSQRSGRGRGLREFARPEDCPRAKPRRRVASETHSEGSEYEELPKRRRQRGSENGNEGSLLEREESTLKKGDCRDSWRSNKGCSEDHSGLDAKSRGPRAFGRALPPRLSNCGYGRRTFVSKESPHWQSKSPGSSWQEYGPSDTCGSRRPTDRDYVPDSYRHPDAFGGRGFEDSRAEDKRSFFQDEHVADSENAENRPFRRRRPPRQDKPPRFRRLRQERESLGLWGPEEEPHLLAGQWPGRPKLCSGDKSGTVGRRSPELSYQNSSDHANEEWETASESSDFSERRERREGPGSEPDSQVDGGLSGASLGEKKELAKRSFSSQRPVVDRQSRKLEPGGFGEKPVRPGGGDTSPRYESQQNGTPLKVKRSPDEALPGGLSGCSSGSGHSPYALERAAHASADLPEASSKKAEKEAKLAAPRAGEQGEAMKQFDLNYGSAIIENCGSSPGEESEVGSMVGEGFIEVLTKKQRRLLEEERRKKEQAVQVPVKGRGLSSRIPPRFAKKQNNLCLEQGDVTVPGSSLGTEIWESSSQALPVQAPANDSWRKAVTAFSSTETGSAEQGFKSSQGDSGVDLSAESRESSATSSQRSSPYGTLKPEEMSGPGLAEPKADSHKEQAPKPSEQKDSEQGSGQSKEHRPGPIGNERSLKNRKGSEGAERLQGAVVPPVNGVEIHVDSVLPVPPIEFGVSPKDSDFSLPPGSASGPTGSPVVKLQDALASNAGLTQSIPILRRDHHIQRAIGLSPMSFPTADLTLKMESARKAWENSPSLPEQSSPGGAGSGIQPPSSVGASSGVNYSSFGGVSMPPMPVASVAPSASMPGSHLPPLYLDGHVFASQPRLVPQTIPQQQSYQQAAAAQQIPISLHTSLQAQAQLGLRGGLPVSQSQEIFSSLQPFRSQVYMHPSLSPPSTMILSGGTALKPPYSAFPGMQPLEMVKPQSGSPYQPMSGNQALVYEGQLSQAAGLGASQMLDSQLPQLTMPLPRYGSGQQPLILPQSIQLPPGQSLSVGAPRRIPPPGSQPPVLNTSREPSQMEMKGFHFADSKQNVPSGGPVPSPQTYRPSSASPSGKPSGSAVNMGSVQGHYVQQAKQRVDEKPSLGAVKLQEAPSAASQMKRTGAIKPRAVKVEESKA
UniProt P78344: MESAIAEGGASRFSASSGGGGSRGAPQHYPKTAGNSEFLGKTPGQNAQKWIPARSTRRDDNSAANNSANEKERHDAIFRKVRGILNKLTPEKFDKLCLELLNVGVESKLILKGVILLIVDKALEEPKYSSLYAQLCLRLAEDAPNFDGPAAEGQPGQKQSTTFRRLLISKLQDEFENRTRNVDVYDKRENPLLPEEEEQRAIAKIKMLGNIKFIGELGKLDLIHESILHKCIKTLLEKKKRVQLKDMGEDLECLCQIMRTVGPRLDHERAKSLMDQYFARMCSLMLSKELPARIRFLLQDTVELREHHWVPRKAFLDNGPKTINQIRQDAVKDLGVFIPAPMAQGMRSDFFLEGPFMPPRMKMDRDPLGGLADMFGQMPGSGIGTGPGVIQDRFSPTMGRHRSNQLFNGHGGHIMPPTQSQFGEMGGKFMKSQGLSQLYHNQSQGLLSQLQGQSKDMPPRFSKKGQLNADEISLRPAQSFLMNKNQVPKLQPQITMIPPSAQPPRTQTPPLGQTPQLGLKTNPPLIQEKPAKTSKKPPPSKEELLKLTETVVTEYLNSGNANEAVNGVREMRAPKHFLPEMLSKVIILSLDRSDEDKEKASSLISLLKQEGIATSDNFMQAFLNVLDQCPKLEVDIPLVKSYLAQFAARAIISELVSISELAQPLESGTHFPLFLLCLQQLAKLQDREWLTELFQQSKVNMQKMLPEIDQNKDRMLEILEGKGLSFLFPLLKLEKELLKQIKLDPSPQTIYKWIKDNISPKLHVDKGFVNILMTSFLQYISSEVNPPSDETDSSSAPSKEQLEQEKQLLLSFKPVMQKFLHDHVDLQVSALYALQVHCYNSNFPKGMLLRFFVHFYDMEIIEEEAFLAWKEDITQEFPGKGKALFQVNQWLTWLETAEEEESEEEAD
UniProt P51114: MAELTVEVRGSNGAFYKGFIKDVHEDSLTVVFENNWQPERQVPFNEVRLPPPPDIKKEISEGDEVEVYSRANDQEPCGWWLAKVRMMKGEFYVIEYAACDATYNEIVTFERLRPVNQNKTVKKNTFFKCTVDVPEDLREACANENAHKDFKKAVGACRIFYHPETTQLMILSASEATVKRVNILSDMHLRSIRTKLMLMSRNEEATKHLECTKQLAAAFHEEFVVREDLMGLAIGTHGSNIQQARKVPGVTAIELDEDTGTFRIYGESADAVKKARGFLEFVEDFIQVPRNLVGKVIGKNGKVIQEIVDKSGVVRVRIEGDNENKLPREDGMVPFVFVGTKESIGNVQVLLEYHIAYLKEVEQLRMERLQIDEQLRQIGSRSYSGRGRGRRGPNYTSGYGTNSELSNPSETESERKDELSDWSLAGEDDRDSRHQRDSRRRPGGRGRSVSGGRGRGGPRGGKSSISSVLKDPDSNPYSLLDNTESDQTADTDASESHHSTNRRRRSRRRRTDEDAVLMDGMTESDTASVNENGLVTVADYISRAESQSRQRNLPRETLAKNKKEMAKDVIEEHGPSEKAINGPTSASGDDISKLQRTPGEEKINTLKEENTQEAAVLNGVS

Results are given in words; binding and its absence hold for the method and conditions named. Binding seen in cells or lysates may run through a third protein. Here binding means that the protein was enriched with, or labelled near, the bait; the list need not be complete.

“eukaryotic translation initiation factor 4G2 (eIF4G2) (from UniProt P78344 1-907)”: the binding entry is given as “binds”. Take “3' UTR-binding protein FXR1 (from UniProt P51114 1-621)”: the binding entry is reported as “binds”.

The values are drawn from paper PMC10287950.
